Laboratory results from PMC3954757, “Novel Potent Imidazo[1,2-a]pyridine-N-Glycinyl-Hydrazone Inhibitors of TNF-α Production: In Vitro and In Vivo Studies” (PLoS ONE, 2014).

Key:
[1] = tested on: murine peritoneal macrophages; assay: Cell viability by MTT assay; format: cell-based, mouse
Method: The peritoneal macrophage were obtained and plated as described above. The cells were incubated with the vehicle or compounds for 20 hours when was added 200 µL of RPMI medium containing 0.5 mg/mL MTT […] (3-(4,5-dimethylthiazol-2-yl)-2,5-diphenyltetrazolium bromide) followed by 4 hour of incubation at 37°C in a 5% CO2 atmosphere. After incubation supernatants were discarded and 200 µL DMSO (dimethylsulfoxide) were added to solubilize the MTT-formazan crystals. The optical density was measured in a microplate reader at 490 nm. The control groups consisted of cells with medium plus vehicle used to dissolve the substances and was considered as 100% of viable cells. Results are expressed as percentage of viable cells when compared with control groups.

TNF-α production = assay: LPS-induced TNF-α production in culture of mice peritoneal macrophage (ELISA); details: Mus musculus, read-out: TNF-α IC50

C[S+]([O-])c1ccc(-c2nc(-c3ccncc3)c(-c3ccc(F)cc3)[nH]2)cc1 (stereo not drawn) [SB-203580, reference compound]
IC50 ([1]; Mus musculus, Peritoneal macrophage, read-out: % of cell viability IC50): 9.7 µM | Selectivity Index (SI) ([1]; SI = cytotoxicity IC50/anti-TNF-α IC50): 44.0 | IC50 (TNF-α production): 0.22 µM
